# Results as given in the supplement of paper PMC10849652.
# Protein sequences, listed by entry. Tags and fused reporters are not part of them. Lines headed by an entry give the natural chain unless they say otherwise; changes in a name come on top.
# UniProt Q8NBN3: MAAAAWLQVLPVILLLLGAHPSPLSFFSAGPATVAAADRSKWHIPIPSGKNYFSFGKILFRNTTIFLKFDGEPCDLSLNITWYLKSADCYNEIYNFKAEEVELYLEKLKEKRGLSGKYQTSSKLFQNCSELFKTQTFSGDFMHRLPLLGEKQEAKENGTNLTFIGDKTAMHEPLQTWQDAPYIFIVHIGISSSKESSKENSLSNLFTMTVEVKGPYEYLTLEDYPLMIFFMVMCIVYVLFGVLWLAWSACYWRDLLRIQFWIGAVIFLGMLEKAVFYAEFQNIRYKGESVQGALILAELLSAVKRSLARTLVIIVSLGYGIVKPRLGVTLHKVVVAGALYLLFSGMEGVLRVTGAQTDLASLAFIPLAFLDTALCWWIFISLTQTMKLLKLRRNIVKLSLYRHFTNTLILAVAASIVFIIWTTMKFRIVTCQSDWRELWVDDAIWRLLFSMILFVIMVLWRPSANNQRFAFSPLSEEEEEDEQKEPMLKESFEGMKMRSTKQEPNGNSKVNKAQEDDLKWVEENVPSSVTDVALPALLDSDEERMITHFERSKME
# UniProt P17152: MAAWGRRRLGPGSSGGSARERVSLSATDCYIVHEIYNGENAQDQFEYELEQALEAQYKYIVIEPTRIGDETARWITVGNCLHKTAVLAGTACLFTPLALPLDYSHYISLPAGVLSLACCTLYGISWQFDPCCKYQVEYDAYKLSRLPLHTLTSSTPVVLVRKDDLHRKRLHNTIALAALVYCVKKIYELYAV
# UniProt P82094: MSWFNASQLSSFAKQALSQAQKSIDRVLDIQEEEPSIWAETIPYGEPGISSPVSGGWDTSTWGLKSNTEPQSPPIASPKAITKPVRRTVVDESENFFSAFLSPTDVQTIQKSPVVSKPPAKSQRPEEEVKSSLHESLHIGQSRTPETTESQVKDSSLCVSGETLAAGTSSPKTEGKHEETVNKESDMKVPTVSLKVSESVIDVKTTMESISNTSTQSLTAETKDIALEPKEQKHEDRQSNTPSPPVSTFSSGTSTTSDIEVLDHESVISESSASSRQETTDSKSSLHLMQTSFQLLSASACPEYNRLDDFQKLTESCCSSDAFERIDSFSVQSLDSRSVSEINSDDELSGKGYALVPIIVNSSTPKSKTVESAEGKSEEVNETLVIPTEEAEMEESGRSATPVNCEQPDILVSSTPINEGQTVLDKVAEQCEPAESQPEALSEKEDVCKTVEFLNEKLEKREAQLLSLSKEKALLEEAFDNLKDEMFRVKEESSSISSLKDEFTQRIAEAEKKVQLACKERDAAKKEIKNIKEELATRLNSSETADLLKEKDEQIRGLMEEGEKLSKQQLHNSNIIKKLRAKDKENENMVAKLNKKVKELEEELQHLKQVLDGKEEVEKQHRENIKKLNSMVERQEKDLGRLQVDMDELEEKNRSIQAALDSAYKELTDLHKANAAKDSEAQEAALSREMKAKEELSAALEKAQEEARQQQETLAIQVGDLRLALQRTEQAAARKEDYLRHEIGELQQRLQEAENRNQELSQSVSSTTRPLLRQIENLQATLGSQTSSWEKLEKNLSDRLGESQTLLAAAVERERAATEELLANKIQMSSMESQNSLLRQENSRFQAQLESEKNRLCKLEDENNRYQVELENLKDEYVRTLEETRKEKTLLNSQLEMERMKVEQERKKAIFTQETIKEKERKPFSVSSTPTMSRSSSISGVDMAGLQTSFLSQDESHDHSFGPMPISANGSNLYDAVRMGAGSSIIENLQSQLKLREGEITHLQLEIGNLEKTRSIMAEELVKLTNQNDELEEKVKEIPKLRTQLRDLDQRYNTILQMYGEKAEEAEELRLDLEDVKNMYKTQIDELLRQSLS
# UniProt Q96A57: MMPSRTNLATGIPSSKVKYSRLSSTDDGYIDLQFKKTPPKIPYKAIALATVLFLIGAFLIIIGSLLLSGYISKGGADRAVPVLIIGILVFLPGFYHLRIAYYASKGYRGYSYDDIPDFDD
# UniProt Q5BJF2, whole entry, looked up: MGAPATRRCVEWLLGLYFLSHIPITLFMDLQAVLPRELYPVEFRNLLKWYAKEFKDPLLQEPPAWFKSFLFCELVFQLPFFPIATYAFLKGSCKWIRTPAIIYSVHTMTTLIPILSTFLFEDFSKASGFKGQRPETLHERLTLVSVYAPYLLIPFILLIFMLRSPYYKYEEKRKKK
# UniProt Q86UB9: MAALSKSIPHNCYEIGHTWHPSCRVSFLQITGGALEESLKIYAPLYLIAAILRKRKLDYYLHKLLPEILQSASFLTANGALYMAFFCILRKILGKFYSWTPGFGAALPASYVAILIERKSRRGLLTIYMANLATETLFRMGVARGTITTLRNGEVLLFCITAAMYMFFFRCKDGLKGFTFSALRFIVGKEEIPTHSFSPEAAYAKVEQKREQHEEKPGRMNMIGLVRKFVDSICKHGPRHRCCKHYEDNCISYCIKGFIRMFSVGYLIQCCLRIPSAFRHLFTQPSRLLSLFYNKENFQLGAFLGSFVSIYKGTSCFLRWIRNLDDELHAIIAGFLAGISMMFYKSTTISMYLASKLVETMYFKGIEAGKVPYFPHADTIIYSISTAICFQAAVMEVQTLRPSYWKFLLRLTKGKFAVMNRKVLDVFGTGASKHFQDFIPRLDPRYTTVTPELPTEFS
# UniProt P42167: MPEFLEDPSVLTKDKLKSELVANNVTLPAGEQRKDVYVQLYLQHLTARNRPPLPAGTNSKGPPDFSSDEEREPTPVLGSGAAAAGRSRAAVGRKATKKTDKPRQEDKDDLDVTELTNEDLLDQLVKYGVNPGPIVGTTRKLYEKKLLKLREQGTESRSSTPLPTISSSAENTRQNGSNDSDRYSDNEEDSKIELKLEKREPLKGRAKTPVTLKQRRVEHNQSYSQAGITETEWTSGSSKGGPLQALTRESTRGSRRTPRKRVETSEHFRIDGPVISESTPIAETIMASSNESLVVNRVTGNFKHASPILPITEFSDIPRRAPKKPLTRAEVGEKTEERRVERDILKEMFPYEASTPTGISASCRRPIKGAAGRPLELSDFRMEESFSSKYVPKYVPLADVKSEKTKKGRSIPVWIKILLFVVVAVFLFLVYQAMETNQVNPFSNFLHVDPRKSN
# UniProt Q8NDZ6: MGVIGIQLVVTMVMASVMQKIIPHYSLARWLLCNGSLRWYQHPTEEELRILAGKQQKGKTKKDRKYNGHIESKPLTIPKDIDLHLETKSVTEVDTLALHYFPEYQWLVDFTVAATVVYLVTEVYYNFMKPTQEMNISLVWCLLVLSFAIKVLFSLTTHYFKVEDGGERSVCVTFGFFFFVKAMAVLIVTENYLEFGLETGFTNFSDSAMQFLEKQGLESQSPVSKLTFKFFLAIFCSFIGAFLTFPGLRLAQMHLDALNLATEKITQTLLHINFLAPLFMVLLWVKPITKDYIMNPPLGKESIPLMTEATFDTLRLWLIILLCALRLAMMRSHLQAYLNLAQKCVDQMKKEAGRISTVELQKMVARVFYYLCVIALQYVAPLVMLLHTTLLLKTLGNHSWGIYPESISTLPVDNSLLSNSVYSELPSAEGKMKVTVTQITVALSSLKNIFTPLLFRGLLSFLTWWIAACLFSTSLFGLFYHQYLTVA
# UniProt Q9Y3Q3: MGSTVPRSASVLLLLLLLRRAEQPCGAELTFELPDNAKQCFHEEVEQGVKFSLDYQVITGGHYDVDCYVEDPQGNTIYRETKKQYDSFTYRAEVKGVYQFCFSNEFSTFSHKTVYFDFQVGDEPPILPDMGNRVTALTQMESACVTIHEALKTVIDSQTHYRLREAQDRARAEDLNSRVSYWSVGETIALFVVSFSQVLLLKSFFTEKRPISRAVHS
# UniProt O15321, whole entry, looked up: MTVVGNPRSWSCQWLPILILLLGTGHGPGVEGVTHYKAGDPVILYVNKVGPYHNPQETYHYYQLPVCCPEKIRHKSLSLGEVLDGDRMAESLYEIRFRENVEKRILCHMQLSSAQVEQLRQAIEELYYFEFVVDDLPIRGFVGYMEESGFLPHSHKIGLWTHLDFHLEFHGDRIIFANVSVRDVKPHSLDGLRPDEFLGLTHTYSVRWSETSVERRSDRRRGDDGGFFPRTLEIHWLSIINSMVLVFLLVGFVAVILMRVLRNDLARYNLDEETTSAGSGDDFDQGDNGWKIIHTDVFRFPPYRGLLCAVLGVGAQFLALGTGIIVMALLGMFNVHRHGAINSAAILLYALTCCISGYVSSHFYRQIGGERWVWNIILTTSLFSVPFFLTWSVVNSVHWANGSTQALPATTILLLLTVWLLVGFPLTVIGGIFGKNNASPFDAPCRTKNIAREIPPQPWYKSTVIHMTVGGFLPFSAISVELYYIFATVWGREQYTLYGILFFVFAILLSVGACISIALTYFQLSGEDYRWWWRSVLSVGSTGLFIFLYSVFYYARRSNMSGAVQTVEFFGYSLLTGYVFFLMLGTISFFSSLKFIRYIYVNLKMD
# UniProt Q9BVC6: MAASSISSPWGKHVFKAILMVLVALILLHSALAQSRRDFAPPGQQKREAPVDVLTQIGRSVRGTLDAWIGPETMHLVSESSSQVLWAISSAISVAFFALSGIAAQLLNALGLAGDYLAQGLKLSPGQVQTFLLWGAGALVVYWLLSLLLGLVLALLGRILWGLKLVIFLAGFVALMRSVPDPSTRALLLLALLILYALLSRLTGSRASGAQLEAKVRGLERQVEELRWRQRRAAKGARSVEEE
# UniProt Q9HC07: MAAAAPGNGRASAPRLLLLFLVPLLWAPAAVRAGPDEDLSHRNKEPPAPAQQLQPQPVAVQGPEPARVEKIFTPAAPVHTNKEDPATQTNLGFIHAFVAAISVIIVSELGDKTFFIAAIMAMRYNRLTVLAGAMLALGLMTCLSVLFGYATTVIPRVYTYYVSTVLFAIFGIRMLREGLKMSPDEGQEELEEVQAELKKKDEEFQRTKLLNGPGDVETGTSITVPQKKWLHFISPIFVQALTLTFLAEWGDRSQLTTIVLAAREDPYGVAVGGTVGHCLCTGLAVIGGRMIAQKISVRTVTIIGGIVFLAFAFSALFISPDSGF
# UniProt Q8IUX1: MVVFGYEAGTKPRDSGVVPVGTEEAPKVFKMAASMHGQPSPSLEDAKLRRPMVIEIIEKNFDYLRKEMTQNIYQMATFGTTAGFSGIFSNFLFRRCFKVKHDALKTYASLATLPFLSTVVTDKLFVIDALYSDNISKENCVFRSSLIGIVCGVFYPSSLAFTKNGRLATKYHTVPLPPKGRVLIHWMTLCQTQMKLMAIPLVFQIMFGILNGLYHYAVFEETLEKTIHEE
# This is one part of the list.
# Legend:
# Assay in all cases: log2 fold change, soluble protein after heating vs DMSO (PISA); higher = thermal stabilisation; K562 cells, 10 uM, 30 min; active = over 0.2 and 3.5 SD of the protein, either way, in both replicates (recomputed)
# [1] = compound: CS(=O)(=O)c1ccc(-c2cnc(N)c(C(=O)Nc3ccccc3)n2)cc1
# How it was run: (§1)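 K562 cells (2×10^6 cells/mL) were treated with 10 μM compound for 30 min, and aliquots were heated for 3 min over 48°C-58°C. Pooled aliquots were extracted in PBS with 0.5% NP-40 at 4°C, and the supernatant after 21,000xg for 90 min was measured by TMTpro 16plex LC-MS/MS with channel sums equalised. Reported thermal stability, relative to control samples and from duplicates, is a log2 fold change.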
# crizotinib = compound: C[C@@H](Oc1cc(-c2cnn(C3CCNCC3)c2)cnc1N)c1c(Cl)ccc(F)c1Cl [crizotinib]
# How it was run: as §1
# [2] = compound: C[C@@H]1COCCN1C2=NC(=NC(=C2)C3(CC3)S(=O)(=O)C)C4=C5C=CNC5=CC=C4
# How it was run: as §1
# [3] = compound: C[C@H](C1=CC=C(C=C1)C(=O)NC2=C3C=CNC3=NC=C2)N
# How it was run: as §1
# duvelisib = compound: C[C@H](Nc1ncnc2nc[nH]c12)c1cc2cccc(Cl)c2c(=O)n1-c1ccccc1 [duvelisib]
# How it was run: as §1
# gandotinib = compound: Cc1cc(Nc2cc(CN3CCOCC3)c3nc(C)c(Cc4ccc(Cl)cc4F)n3n2)n[nH]1 [gandotinib]
# How it was run: as §1
# tozasertib = compound: Cc1cc(Nc2cc(N3CCN(C)CC3)nc(Sc3ccc(NC(=O)C4CC4)cc3)n2)n[nH]1 [tozasertib]
# How it was run: as §1
# [4] = compound: Cc1cc(SCc2sc(-c3ccc(C(F)(F)F)cc3)nc2C)ccc1OCC(=O)O
# How it was run: as §1
# doramapimod = compound: Cc1ccc(-n2nc(C(C)(C)C)cc2NC(=O)Nc2ccc(OCCN3CCOCC3)c3ccccc23)cc1 [doramapimod]
# How it was run: as §1
# ispinesib = compound: Cc1ccc(C(=O)N(CCCN)[C@@H](c2nc3cc(Cl)ccc3c(=O)n2Cc2ccccc2)C(C)C)cc1 [ispinesib]
# How it was run: as §1
# bafetinib = compound: Cc1ccc(NC(=O)c2ccc(CN3CC[C@H](N(C)C)C3)c(C(F)(F)F)c2)cc1Nc1nccc(-c2cncnc2)n1 [bafetinib]
# How it was run: as §1
# [5] = compound: Cc1cccc(CC(=O)N2CCc3c2ccc(-c2cn(C)c4ncnc(N)c24)c3F)n1
# How it was run: as §1
# nilotinib = compound: Cc1cn(-c2cc(NC(=O)c3ccc(C)c(Nc4nccc(-c5cccnc5)n4)c3)cc(C(F)(F)F)c2)cn1 [nilotinib]
# How it was run: as §1
# [6] = compound: Cc1nc(Nc2n[nH]c3c2CN(C(=O)N[C@H](CN(C)C)c2ccccc2)C3(C)C)c2sccc2n1
# How it was run: as §1
# dasatinib = compound: Cc1nc(Nc2ncc(C(=O)Nc3c(C)cccc3Cl)s2)cc(N2CCN(CCO)CC2)n1 [dasatinib]
# How it was run: as §1
# [7] = compound: Cc1ncc(-c2ccnc(Nc3ccc(S(C)(=O)=O)cc3)n2)n1C(C)C
# How it was run: as §1
# [8] = compound: Cn1cc(-c2ccc3c(c2)CCN3C(=O)Cc2cccc(C(F)(F)F)c2)c2c(N)ncnc21
# How it was run: as §1
# [9] = compound: Cn1cc(-c2ccc3nnc(C(F)(F)c4ccc5ncccc5c4)n3n2)cn1
# How it was run: as §1
# tipifarnib = compound: Cn1cncc1[C@@](N)(c1ccc(Cl)cc1)c1ccc2c(c1)c(-c1cccc(Cl)c1)cc(=O)n2C [tipifarnib]
# How it was run: as §1
# mubritinib = compound: FC(F)(F)c1ccc(/C=C/c2nc(COc3ccc(CCCCn4ccnn4)cc3)co2)cc1 [mubritinib]
# How it was run: as §1
Target,log2 fold change [1],log2 fold change (crizotinib),log2 fold change [2],log2 fold change [3],log2 fold change (duvelisib),log2 fold change (gandotinib),log2 fold change (tozasertib),log2 fold change [4],log2 fold change (doramapimod),log2 fold change (ispinesib),log2 fold change (bafetinib),log2 fold change [5],log2 fold change (nilotinib),log2 fold change [6],log2 fold change (dasatinib),log2 fold change [7],log2 fold change [8],log2 fold change [9],log2 fold change (tipifarnib),log2 fold change (mubritinib)
TMEM87A (UniProt Q8NBN3),inactive: 0.028,inactive: -0.198,inactive: 0.005,inactive: -0.005,inactive: 0.064,inactive: 0.008,inactive: -0.014,inactive: -0.062,inactive: -0.023,inactive: -0.098,inactive: -0.052,inactive: -0.05,inactive: 0.018,inactive: 0.005,inactive: 0.067,inactive: 0.002,inactive: 0.012,inactive: 0.013,inactive: 0.046,inactive: 0.079
TMEM11 (UniProt P17152),inactive: 0.052,inactive: 0.145,inactive: 0.057,inactive: -0.086,inactive: 0.055,inactive: 0.002,inactive: -0.005,inactive: 0.076,inactive: -0.083,inactive: 0.095,inactive: -0.032,inactive: -0.029,inactive: -0.019,inactive: -0.011,inactive: 0.011,inactive: -0.024,inactive: -0.002,inactive: -0.134,inactive: 0.025,inactive: 0.033
TMF1 (UniProt P82094),inactive: -0.033,inactive: 0.039,inactive: -0.006,inactive: -0.037,inactive: 0.012,inactive: -0.003,inactive: 0.026,inactive: -0.044,inactive: 0.011,inactive: 0.004,inactive: -0.089,inactive: -0.04,inactive: 0.044,inactive: 0.046,inactive: 0.04,inactive: 0.036,inactive: -0.014,inactive: 0.007,inactive: 0.021,inactive: 0.033
TMEM230 isoform 2 (UniProt Q96A57),inactive: -0.038,inactive: 0.024,inactive: 0.006,inactive: -0.168,inactive: 0.013,inactive: -0.026,inactive: -0.071,inactive: -0.021,inactive: -0.066,inactive: -0.02,inactive: 0.204,inactive: 0.003,inactive: 0.024,inactive: 0.014,inactive: 0,inactive: 0.003,inactive: 0.06,inactive: 0.005,inactive: 0.044,inactive: 0.041
TMEM97 (UniProt Q5BJF2),inactive: 0.056,inactive: 0.118,inactive: 0.119,inactive: 0.018,inactive: 0.015,inactive: -0.007,inactive: -0.077,inactive: -0.009,inactive: 0.004,inactive: 0.054,inactive: -0.051,inactive: -0.072,inactive: -0.02,inactive: 0.048,inactive: 0.051,inactive: -0.096,inactive: 0.027,inactive: -0.112,inactive: 0.04,inactive: 0.039
TMEM135 (UniProt Q86UB9),inactive: 0.003,inactive: 0.015,inactive: 0.106,inactive: 0.05,inactive: 0.021,inactive: -0.042,inactive: -0.013,inactive: -0.017,inactive: 0.002,inactive: 0.033,inactive: -0.035,inactive: -0.047,inactive: 0.011,inactive: 0.003,inactive: -0.02,inactive: 0.001,inactive: 0.053,inactive: -0.012,inactive: 0.067,inactive: -0.029
TMPO (UniProt P42167),inactive: 0.011,inactive: -0.032,inactive: 0.065,inactive: -0.018,inactive: 0.028,inactive: -0.084,inactive: 0.01,inactive: 0.021,inactive: -0.032,inactive: 0.001,inactive: -0.04,inactive: 0,inactive: 0.011,inactive: -0.035,inactive: -0.014,inactive: 0.045,inactive: 0.137,inactive: 0.037,inactive: 0.004,inactive: -0.038
TMEM161B (UniProt Q8NDZ6),inactive: 0.026,inactive: -0.096,inactive: 0.004,inactive: 0.002,,inactive: -0.156,,inactive: 0.11,inactive: -0.024,inactive: -0.055,inactive: -0.01,inactive: 0.073,inactive: -0.148,inactive: -0.018,active: -0.273,inactive: -0.046,inactive: -0.08,inactive: 0.103,inactive: -0.043,inactive: 0.036
TMED3 (UniProt Q9Y3Q3),inactive: -0.03,inactive: -0.021,inactive: 0.003,inactive: 0.05,inactive: 0.001,inactive: -0.057,inactive: -0.003,inactive: 0.064,inactive: 0.04,,inactive: -0.13,inactive: 0.003,inactive: -0.107,inactive: 0.103,inactive: -0.04,inactive: 0.013,inactive: 0.009,,inactive: -0.032,inactive: -0.041
TMEM189-UBE2V1 (UniProt I3L0A0),inactive: 0.063,inactive: 0.022,inactive: 0.051,inactive: 0.051,,inactive: 0.007,,inactive: -0.034,inactive: 0.021,inactive: 0.071,inactive: -0.038,inactive: -0.035,inactive: -0.012,active: 0.229,inactive: -0.009,inactive: 0.055,inactive: 0.015,inactive: 0.069,inactive: 0.056,inactive: 0.026
TM9SF1 (UniProt O15321),inactive: 0.033,inactive: 0.067,inactive: 0.035,inactive: 0.058,inactive: 0.067,inactive: -0.117,inactive: 0.052,inactive: -0.034,inactive: 0.258,inactive: 0.06,inactive: 0.013,inactive: -0.038,inactive: 0.057,inactive: -0.023,inactive: 0.14,inactive: 0.099,inactive: -0.03,inactive: -0.015,inactive: 0.049,inactive: 0.096
TMEM109 (UniProt Q9BVC6),inactive: -0.02,inactive: 0.083,inactive: 0.035,inactive: 0.012,inactive: 0.071,inactive: 0.01,inactive: -0.079,inactive: -0.074,inactive: -0.054,inactive: 0.029,inactive: -0.031,inactive: -0.094,inactive: 0.002,inactive: 0.024,inactive: 0.046,inactive: -0.028,inactive: 0.013,inactive: 0.031,inactive: -0.007,inactive: 0.035
TMEM245 (UniProt Q9H330),inactive: 0.004,inactive: 0.031,inactive: 0.026,inactive: -0.111,inactive: 0.052,inactive: -0.066,inactive: 0,inactive: -0.055,inactive: -0.009,inactive: 0.006,inactive: -0.057,inactive: -0.091,inactive: -0.043,inactive: 0.036,inactive: -0.03,inactive: 0.016,inactive: -0.024,inactive: 0.15,inactive: 0.009,inactive: 0.016
TMEM165 (UniProt Q9HC07),inactive: 0.05,inactive: 0.038,inactive: -0.052,inactive: 0.019,inactive: 0.027,inactive: 0.032,inactive: -0.056,inactive: -0.005,inactive: 0.047,inactive: 0.02,inactive: 0.074,inactive: -0.115,inactive: 0.056,inactive: -0.038,inactive: 0.084,inactive: -0.023,inactive: 0.06,inactive: -0.044,inactive: -0.022,inactive: 0.013
TMEM126B (UniProt Q8IUX1),inactive: -0.085,inactive: -0.029,inactive: 0.064,inactive: -0.024,inactive: 0.086,inactive: -0.023,inactive: -0.013,inactive: -0.051,inactive: -0.026,inactive: -0.071,inactive: -0.036,inactive: 0.051,inactive: 0.023,inactive: 0,inactive: 0.013,inactive: 0.047,inactive: 0.075,inactive: 0.005,,inactive: 0.017

# A run of entries from the list above, as a working copy:
Target,log2 fold change [1],log2 fold change (crizotinib),log2 fold change [2],log2 fold change [3],log2 fold change (duvelisib),log2 fold change (gandotinib),log2 fold change (tozasertib),log2 fold change [4],log2 fold change (doramapimod),log2 fold change (ispinesib),log2 fold change (bafetinib),log2 fold change [5],log2 fold change (nilotinib),log2 fold change [6],log2 fold change (dasatinib),log2 fold change [7],log2 fold change [8],log2 fold change [9],log2 fold change (tipifarnib),log2 fold change (mubritinib)
TMEM245 (UniProt Q9H330),inactive: 0.004,inactive: 0.031,inactive: 0.026,inactive: -0.111,inactive: 0.052,inactive: -0.066,inactive: 0,inactive: -0.055,inactive: -0.009,inactive: 0.006,inactive: -0.057,inactive: -0.091,inactive: -0.043,inactive: 0.036,inactive: -0.03,inactive: 0.016,inactive: -0.024,inactive: 0.15,inactive: 0.009,inactive: 0.016
TMEM165 (UniProt Q9HC07),inactive: 0.05,inactive: 0.038,inactive: -0.052,inactive: 0.019,inactive: 0.027,inactive: 0.032,inactive: -0.056,inactive: -0.005,inactive: 0.047,inactive: 0.02,inactive: 0.074,inactive: -0.115,inactive: 0.056,inactive: -0.038,inactive: 0.084,inactive: -0.023,inactive: 0.06,inactive: -0.044,inactive: -0.022,inactive: 0.013
TMEM126B (UniProt Q8IUX1),inactive: -0.085,inactive: -0.029,inactive: 0.064,inactive: -0.024,inactive: 0.086,inactive: -0.023,inactive: -0.013,inactive: -0.051,inactive: -0.026,inactive: -0.071,inactive: -0.036,inactive: 0.051,inactive: 0.023,inactive: 0,inactive: 0.013,inactive: 0.047,inactive: 0.075,inactive: 0.005,,inactive: 0.017
